# Measurements reported in PubChem BioAssay AID2685 (National Center for Advancing Translational Sciences (NCATS), 2010).
# Some of the results follow. Further columns of the screen follow, without active or inactive calls. Compounds called inactive in the main read-out are mostly missing here. The note in brackets gives the kind of curve behind each potency; many fits are weak.
# Assay: qHTS Assay for Lipid Storage Modulators in Drosophila S3 Cells;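 for cell number change: cells counted by Cell Tracker Red CMTPX staining in the red channel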
# Details: BODIPY lipid droplet fluorescence, 18-24 h; for cell number change: measured here: cell count max response, cells fed with added oleic acid
# Method in brief: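 Laser-scanning cytometry quantifies lipid droplet accumulation (500–530 nm total intensity; droplet/cell object ratio) in oleic acid-fed (400 uM added) Drosophila S3 cells treated with a concentration series. 20 uM Triacsin C defined 100% inhibition.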
# [1] = measured here: cell number channel AC50, cells fed with added oleic acid
# [2] = measured here: lipid fluorescence (Fed channel) AC50, cells fed with added oleic acid
Compound,AC50 [1],AC50 [2],cell number change
CCCC(=O)NCCc1cc2ccc(C)c(C)c2[nH]c1=O,"4.11 µM [rising, partial curve, poor fit]","4.11 µM [rising, partial curve, poor fit]",
COc1ccc(Cc2nc3ccc(C(=O)NCC4COCCO4)cc3o2)cc1 (centres undefined),,,29.8%
O=C1Nc2cccnc2N(C(=O)CCl)c2ccccc21,,,-12.5%
CC(C)NC(=O)C1CCCN(c2nnc(-n3cccc3)s2)C1 (centres undefined),,,-6.02%
COc1cccc(/C(O)=C2\C(=O)C(=O)N(c3ccccn3)C2c2cccc(OC)c2OC)c1 (centres undefined),,"0.206 µM [rising, full curve, poor fit]",
CC(NC(=S)NNS(=O)(=O)c1cccc([N+](=O)[O-])c1)c1ccccc1 (centres undefined),,"10 µM [falling, partial curve]",8.83%
CC(C)N1CCc2c(sc(NC(=O)c3ccc(C(=O)c4ccccc4)cc3)c2C(N)=O)C1,"32.6 µM [falling, single point]",,-32.6%
COc1cc(NC(=O)NC2Cc3ccccc3C2)cc(OC)c1,"2.31 µM [rising, partial curve, poor fit]","29.1 µM [falling, partial curve]",13.9%
CS/C(=N\S(=O)(=O)c1cccs1)Nc1ccc(N2CCOCC2)cc1,"4.61 µM [falling, full curve]","6.51 µM [falling, full curve, poor fit]",-31.5%
CC(C(=O)N1CCc2ccccc21)n1cnc2c1c(=O)n(C)c(=O)n2C (centres undefined),"29.1 µM [falling, single point]",,-32.5%
COCCNC(=O)C(NC(=O)C1CCCCC1)C12CC3CC(CC(C3)C1)C2 (centres undefined),,"32.6 µM [falling, partial curve, poor fit]",-36.9%
Cc1cc(C=O)c(C)n1-c1sc2c(c1C(=O)O)CCCC2,,"0.0184 µM [falling, full curve, poor fit]",-16%
Cc1cccc(CN2CCc3c([nH]c4ccccc34)C2)c1,"23.1 µM [falling, single point]",,-32.4%
Cc1cc(C)cc(NC(=S)/C(=C(\[O-])c2ccc(Cl)cc2Cl)[n+]2ccccc2)c1,,"23.1 µM [rising, single point]",29.5%
CCC[N+]1(CC#CCC(c2ccccc2)c2ccccc2)CCCCC1,,"0.13 µM [falling, full curve, poor fit]",-8.33%
O=C1c2ccc(-c3ccc4c(c3)C(=O)N(CCO)C4=O)cc2C(=O)N1CCO,,"0.517 µM [falling, full curve]",-20.7%
CCC(C)NS(=O)(=O)c1ccc(OCC(=O)N2CCCC2)cc1 (centres undefined),,"5.17 µM [rising, full curve]",15.7%
COc1ccc(-n2nc3c(N)n[nH]c3cc2=O)cc1,"3.26 µM [rising, single point]",,18.2%
Fc1cccc(CSc2nc3ccncc3[nH]2)c1,"9.2 µM [rising, partial curve]","1.64 µM [rising, partial curve]",36.2%
CN(Cc1c(C(=O)N/N=C/c2cccc(O)c2)nnn1-c1nonc1N)c1ccccc1,,"1.64 µM [falling, full curve]",-13.8%
O=C1OCC(CO)(CO)N=C1NNc1cc(Cl)ccc1Cl,"0.13 µM [falling, full curve, poor fit]","6.51 µM [falling, single point]",-19.3%
CCOC(=O)C1CCN(C(=O)c2ccc3c(=O)n4nc(Nc5cc(C)ccc5C)sc4nc3c2)CC1,"0.00517 µM [falling, full curve, poor fit]",,-36%
Cc1ccc(S(=O)(=O)N2CCOCC2)cc1NC(=O)COC(=O)c1ccc2c(c1)OCO2,"0.0058 µM [rising, full curve, poor fit]",,
CCOc1ncccc1C(=O)N1CCN(c2ccc(C(F)(F)F)cn2)CC1,"0.184 µM [rising, full curve, poor fit]","0.103 µM [rising, full curve, poor fit]",41.3%
C/C(CC(=O)Nc1ccc(C)c(Cl)c1)=N\NC(=O)C1CCCCC1,,,32.1%
Cc1ccc(N(CC(O)CON=C2c3ccccc3-c3ccccc32)S(C)(=O)=O)cc1 (centres undefined),"18.4 µM [falling, single point]","0.517 µM [falling, full curve]",-55.7%
COC(=O)c1ccccc1NC(=O)CSc1nnc(-c2cccnc2)o1,,"29.1 µM [rising, single point]",13.5%
CCOC(=O)c1c(C)c(C(=O)NC(C)COC)c(C)n1CC (centres undefined),"25.9 µM [falling, partial curve]","18.4 µM [falling, partial curve]",-88.9%

Compound,AC50 [1],AC50 [2],cell number change
CN(C)S(=O)(=O)c1ccc(C(=O)OCC(=O)NCc2ccccc2)cc1,,"0.13 µM [falling, full curve, poor fit]",-5.28%
CCC(C)[C@H]1COCCS(=O)(=O)N1Cc1ccc(C)cc1 (some centres undefined),,,-10.2%
CCOc1ccc(S(=O)(=O)N2CCOCC2)cc1NC(=O)C1=COCCO1,"13 µM [rising, partial curve]",,92%
CC(NC(=O)c1ccc(NC(=O)c2ccco2)cc1)c1ccccc1 (centres undefined),"14.6 µM [rising, partial curve, poor fit]","29.1 µM [rising, single point]",30.2%
CC1CCN(C(=O)c2ccc(-c3ccccc3Cl)o2)CC1,"18.4 µM [rising, single point]",,41.4%
Cc1oc(/C=N/NS(=O)(=O)c2ccccc2)cc1Br,"3.26 µM [rising, full curve, poor fit]","29.1 µM [rising, single point]",29.6%
CCCCNc1nc2ccccc2nc1NS(=O)(=O)c1cccs1,"5.8 µM [rising, single point]","5.17 µM [rising, single point]",
CCOc1ccc(C2CC(c3ccccc3)Nc3nc(N)nn32)cc1 (centres undefined),,,1.26%
Cc1cc(C(C)(C)CC(C)(C)C)ccc1OCCOCC[N+](C)(C)Cc1ccccc1,"14.6 µM [falling, partial curve, poor fit]","18.4 µM [falling, partial curve]",-74.8%
O=C1/C(=C/c2ccc([N+](=O)[O-])cc2)C=C(c2ccccc2)N1c1ccccc1,"0.517 µM [falling, full curve, poor fit]","0.58 µM [falling, full curve]",-38%
O=C(CN(Cc1ccccc1F)C(=O)c1csnn1)NCc1ccc2c(c1)OCO2,,,11.3%
O=C(Nc1ccc(S(=O)(=O)N2CCCCC2)cc1)c1ccc(F)cc1,,"6.51 µM [falling, single point]",6.96%
COc1cc(/C=N/NC(=O)c2cc(C)n(-c3ccc(F)cc3)c2C)cc(OC)c1O,,"29.1 µM [rising, single point]",
Cc1ccc2sc(N3CCN(C(=O)C4=COCCO4)CC3)nc2c1C,,,-28.1%
COc1ccc(NC(=O)CCCc2ccc(OC)c(C)c2)cc1,,"23.1 µM [rising, partial curve]",9.34%
Cc1ccc(C)c2nc(N3CCCC3)c(C#N)cc12,"6.51 µM [rising, full curve]","1.46 µM [rising, full curve]",78%
CCOc1ccccc1OCCCOc1ccc(C)cc1Br,"5.17 µM [falling, full curve, poor fit]","0.00517 µM [falling, full curve, poor fit]",-24.8%
O=S(=O)(c1cc(Cl)ccc1Cl)N1CCN(Cc2ccco2)CC1,,"11.2 µM [rising, partial curve, poor fit]",22.5%
CCOC(=O)N1CCN(C(=O)/C(=C/c2ccc(N(C)C)cc2)NC(=O)c2ccccc2)CC1,,"0.00461 µM [rising, full curve, poor fit]",4.23%
CC(C)(C)NC(=O)NC(=O)COC(=O)C1CC(=O)N(Cc2ccccc2)C1 (centres undefined),"29.1 µM [rising, single point]",,46.4%
O=C(Nc1nnc(-c2ccco2)o1)c1cccc(N2C(=O)CCC2=O)c1,"0.366 µM [falling, partial curve, poor fit]",,
COc1ccc(-c2nnc(SC(C)C(=O)Nc3nccs3)n2-c2ccccc2)cc1OC (centres undefined),,"1.64 µM [rising, partial curve]",-11.6%
CCn1cc(C(=O)N2CCN(c3ccc(C(C)=O)cc3)CC2)c2cc(OC)c(OC)cc2c1=O,"18.4 µM [rising, partial curve]","3.26 µM [rising, single point]",125%
N#C/C(=C\c1ccccc1)c1ccccn1,"0.00461 µM [rising, full curve, poor fit]","0.00461 µM [rising, full curve, poor fit]",
CSc1nncn1/N=C/c1ccccc1F,"4.11 µM [falling, full curve]","14.6 µM [falling, partial curve]",-41.2%
O=C(COC(=O)c1ccc(OC(F)F)cc1)Nc1cccc(S(=O)(=O)NC2=NCCC2)c1,"8.2 µM [rising, partial curve]","10.3 µM [rising, partial curve]",35%
COc1cc(OC)c(OC)cc1/C=N/NC(=O)c1ccc(=O)n(C)c1,,"20.6 µM [rising, partial curve]",9.12%

# No new results follow: entries from further up.
Compound,AC50 [1],AC50 [2],cell number change
CCOc1ccc(S(=O)(=O)N2CCOCC2)cc1NC(=O)C1=COCCO1,"13 µM [rising, partial curve]",,92%
CC(NC(=O)c1ccc(NC(=O)c2ccco2)cc1)c1ccccc1 (centres undefined),"14.6 µM [rising, partial curve, poor fit]","29.1 µM [rising, single point]",30.2%
CC1CCN(C(=O)c2ccc(-c3ccccc3Cl)o2)CC1,"18.4 µM [rising, single point]",,41.4%
Cc1oc(/C=N/NS(=O)(=O)c2ccccc2)cc1Br,"3.26 µM [rising, full curve, poor fit]","29.1 µM [rising, single point]",29.6%
